This is an account of results in publication PMC7819943, “Rice protein-binding microarrays: a tool to detect cis-acting elements near promoter regions in rice”.

The other results are listed elsewhere or left out.

For this assay, the target named is T1, OsSMF1 (Oryza sativa, UniProt Q6ZLB0 1-436).
T1 sequence: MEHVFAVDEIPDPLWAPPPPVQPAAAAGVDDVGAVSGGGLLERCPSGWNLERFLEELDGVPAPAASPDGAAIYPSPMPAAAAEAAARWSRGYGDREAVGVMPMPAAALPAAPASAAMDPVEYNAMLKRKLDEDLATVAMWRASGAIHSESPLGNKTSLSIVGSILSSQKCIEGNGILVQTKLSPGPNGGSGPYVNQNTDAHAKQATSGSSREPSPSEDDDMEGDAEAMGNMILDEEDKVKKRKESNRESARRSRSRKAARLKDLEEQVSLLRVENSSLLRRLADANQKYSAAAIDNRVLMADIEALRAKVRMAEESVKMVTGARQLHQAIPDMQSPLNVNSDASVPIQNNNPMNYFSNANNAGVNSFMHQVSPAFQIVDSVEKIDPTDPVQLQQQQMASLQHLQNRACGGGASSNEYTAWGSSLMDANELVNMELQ
Description: protein-binding microarray (RPBM); PBS, 2% BSA, 51.3 ng/ul salmon testes DNA, 50 uM zinc acetate, 200 nM TF, 25 C, 1 h; high values mean tight binding. To be noted: protein: recombinant; tags: N-terminal polyhistidine and DsRed monomer fusion (pET32a); chain copies: 2; label: CyDye5-dUTP incorporated in the synthesized complementary strand; 3' TTTTT single-stranded linker to array surface; dsDNA, one strand shown. The method, boiled down:
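The binding signal is fluorescence intensity per feature, in arbitrary units, read on an Axon 4000B scanner. Polyhistidine- and DsRed-tagged transcription factors (N-terminal fusions) from E. coli BL21-CodonPlus were purified on Ni–NTA and applied at 200 nM for 1 h at 25 °C to a double-stranded, BSA-blocked custom Agilent array in buffer with 50 µM zinc acetate.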
“AATTTTAACGCGAACTAGACACACCCAAAATGAGTCTGGTCGGAGTCACCTAGTGCAG”: the binding signal was 33800 fluorescence intensity (a.u.). For “CTACGCGATGAAAGTATCTGTCATCACGCCATCATCCACTCGGAGTCACCTAGTGCAG” the value was 5640 fluorescence intensity (a.u.); for “CTCCCCGCCTCGTTCCCGTTGAGCTCGCCGCCGCTAATATCGGAGTCACCTAGTGCAG”, 5580 fluorescence intensity (a.u.).

For “GCGCTGACCGTGGTCAAAGCGCCACGTCGGACTAAACCGCCGGAGTCACCTAGTGCAG”, the binding signal was 19700 fluorescence intensity (a.u.). For “TAAGTTTAGTAGTTGAGTCATACATCTATCTCATATAAGTCGGAGTCACCTAGTGCAG” the value was 5100 fluorescence intensity (a.u.); for “ATGTTCAATGGCGGCATTTTATTCTTGACTGGACGATTATCGGAGTCACCTAGTGCAG”, 3310 fluorescence intensity (a.u.); for “CCTTCCATGGTGGTCGCCCACATGGCATAGAGCTCACAAGCGGAGTCACCTAGTGCAG”, 3200 fluorescence intensity (a.u.). For “GCCGGCGGCAGGGTGGGGCGGGGACGCCTGCCGGCGTCGGCGGAGTCACCTAGTGCAG”, the binding signal is 3570 fluorescence intensity (a.u.). For “ATCTAGCACGAACGGCTAGGATGCTCTGCCGGGTCAGCCCCGGAGTCACCTAGTGCAG” the value was 6420 fluorescence intensity (a.u.); for “CACTGCAATGACTAGATTACGTGCTCTTTCGCAACCCATACGGAGTCACCTAGTGCAG”, 5140 fluorescence intensity (a.u.). On to “ACATTGACACTAGAATTTAAACTCTGGTAGGTAGAGTCATCGGAGTCACCTAGTGCAG”, for which the binding signal is 3200 fluorescence intensity (a.u.).

For the sequence “ACATATAATTGCCACGTCAGCGCCACATCAATGCCACGTGCGGAGTCACCTAGTGCAG”, the binding signal is 26100 fluorescence intensity (a.u.). As to “ATGGTAATCATTGTGGGTGGCATTCAAATATGACGCAGATCGGAGTCACCTAGTGCAG”, the binding signal is 4670 fluorescence intensity (a.u.). Then “AACCACAACCTGCCACGTACTCTACTCTACCCGCCGCGCGCGGAGTCACCTAGTGCAG”, with 12000 fluorescence intensity (a.u.); and “GGGTATCATGGTTGGTACTCACACGTATTAGATCTGGTACCGGAGTCACCTAGTGCAG”, with 3160 fluorescence intensity (a.u.); and “TGTCATTACAGCCCTGTCACCTCAAGAAATCATGGAACTGCGGAGTCACCTAGTGCAG”, with 3940 fluorescence intensity (a.u.). For “CCAAGCTCTCCAAATTAACGGGTCATAGGTCGTGCCTGGCCGGAGTCACCTAGTGCAG”, the binding signal is 20500 fluorescence intensity (a.u.). Then “AAAGCTTGCGCACGCCACGTCGCCGGCCTCGAGTCGACGACGGAGTCACCTAGTGCAG”, with 8800 fluorescence intensity (a.u.); and “TTTTGACATGCCACCTCTCCAATCTTCATGTCCATCTTTGCGGAGTCACCTAGTGCAG”, with 3300 fluorescence intensity (a.u.); and “TCGCTAATAAATCATATGATGTCATGGGCCCGAGACATCTCGGAGTCACCTAGTGCAG”, with 4000 fluorescence intensity (a.u.).

Consider “GCCGACCAACCGGTGACTAGACTACCATACTGGTACAGTGCGGAGTCACCTAGTGCAG”, for which the binding signal is 7400 fluorescence intensity (a.u.).

Turning to “GAAGAAGCCAAGGTTGTCTCACTCCCAGAAGACCATACACCGGAGTCACCTAGTGCAG”, the binding signal was 23900 fluorescence intensity (a.u.).

As for “GTACGGTGCCACGCACGGCTCTCGTCCTTTATATAAACCACGGAGTCACCTAGTGCAG”, the binding signal is 4430 fluorescence intensity (a.u.).

For the sequence “TTCTATTTATATCATTGCATAATCATACAGGCCATCTTGCCGGAGTCACCTAGTGCAG”, the binding signal is 3630 fluorescence intensity (a.u.). Take “AAAACAGGGGTCCACACAGTGACGCCACATGGCTGCTAAACGGAGTCACCTAGTGCAG”: the binding signal was 3260 fluorescence intensity (a.u.).

In the case of “ATAGCCAAGCAAAATGTGTATCCTAAATGACGTGACAGGGCGGAGTCACCTAGTGCAG”, the binding signal is 4590 fluorescence intensity (a.u.). For “ATCCGTTGAAATTTACACAAATAATCCCACTAAAATATATCGGAGTCACCTAGTGCAG” the value was 19300 fluorescence intensity (a.u.). For “ATGGTTTGGAATTGTCACTACACTTTACTAAATTCATAGTCGGAGTCACCTAGTGCAG” the value was 3420 fluorescence intensity (a.u.); for “AATCCGGTCCGTCCACGTGTAAACCGGCTCGGGTCGGGCTCGGAGTCACCTAGTGCAG”, 10200 fluorescence intensity (a.u.); for “CCGGCGGAAGAATTTGCAATCAGAATGATTGTGCTTAATTCGGAGTCACCTAGTGCAG”, 3160 fluorescence intensity (a.u.).

On to “TAATTTAATATTCCTTGCAATCTACGCTGAGTTGGATTGCCGGAGTCACCTAGTGCAG”, for which the binding signal is 4890 fluorescence intensity (a.u.).

Take “ACGCCACGTACGGGATACGGGAACGCGCCCCGGTCTCCTCCGGAGTCACCTAGTGCAG”: the binding signal is 4180 fluorescence intensity (a.u.).

“GCCCTCTGCTTTACTTGACCCACGAGGACCACGACGTTGACGGAGTCACCTAGTGCAG”: the binding signal is 23100 fluorescence intensity (a.u.).

On to “ATTCTTGCTTTGAACAAGCTAGCTGGCTTGTTACAGTTAACGGAGTCACCTAGTGCAG”, for which the binding signal was 7060 fluorescence intensity (a.u.). Then “GCGAGGCTGCGACTCCAAAAGATGGCGTGTCGCTGCTGCGCGGAGTCACCTAGTGCAG”, with 4880 fluorescence intensity (a.u.).

Regarding “CGCTGTGGTGTGCAGCGGCGGTGCCACGTCCCTATTTAAACGGAGTCACCTAGTGCAG”, the binding signal is 10900 fluorescence intensity (a.u.). For “ATCTCCAAAATCAGTTTAACATCGCCTAATCCACGTCGGTCGGAGTCACCTAGTGCAG” the value was 8120 fluorescence intensity (a.u.); for “GAACACGAGGGCCCACATGTCAGTGACACAACCTCCCTACCGGAGTCACCTAGTGCAG”, 3710 fluorescence intensity (a.u.); for “TGCCCGGTCGATTGATCAGCAGGTTGACGCAGGATGGCGACGGAGTCACCTAGTGCAG”, 3670 fluorescence intensity (a.u.).

In the case of “AAGCGCCACGTTTCCCCGACGTCCACGTCCATTATCCGGCCGGAGTCACCTAGTGCAG”, the binding signal was 5910 fluorescence intensity (a.u.). Then “TCACCACACCTTATGCTTACGTGTAGTGTTAATAATGATTCGGAGTCACCTAGTGCAG”, with 4830 fluorescence intensity (a.u.); and “GTATTCATGTGTTGCACAGAGCCACATATACACGGTACCCCGGAGTCACCTAGTGCAG”, with 3420 fluorescence intensity (a.u.).
